Experimental data: PubChem BioAssay AID743121 (NCATS, 2013)

- Screen: 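Knock-downs that sensitise breast cancer cells to camptothecin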 (primary screen)
- Cell system: MDA-MB-231 cells, a human breast cancer line
- Reagents: single siRNA against human genes, 20 nM siRNA (0.8 pmol per well)
- Timing: 120 h (drug added 48 h after transfection, read 72 h later)
- Conditions: camptothecin 20 nM (about EC30) for 72 h; vehicle 0.1% DMSO in parallel plates
- Detection: 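Cell viability by ATP luminescence (CellTiter-Glo) as % of non-targeting siRNA wells, and the log2 ratio of viability without drug over viability with camptothecin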
- Direction: log2 vehicle/camptothecin viability: higher = stronger sensitisation to camptothecin; viability with camptothecin: higher = more viable cells
- Units: viability with camptothecin in % of control
- Rule for the call: 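Active genes have an RSA gene-level p-value below 0.001, computed from the ratios of their separate siRNAs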
In all, the deposit lists about 26,000 reagents; shown is a random part of them. 167 of them (0.63%) were called active. 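Calls are per gene from RSA p-values that are not deposited; an individual active-marked siRNA can sensitise only weakly.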 A number with no mark means an inactive call. The numbers tell different reagents against one gene apart. Further read-outs or replicates are left out here. No sequences are given here.

For HASPIN (GeneID 83903) #1, the entry reads log2 vehicle/camptothecin viability -0.32; viability with camptothecin 103.
HASPIN (GeneID 83903) #2 showed log2 vehicle/camptothecin viability -0.299; viability with camptothecin 4.96.
HASPIN (GeneID 83903) #3 gave log2 vehicle/camptothecin viability -0.695; viability with camptothecin 87.1.
For HASPIN (GeneID 83903) #4, the entry reads log2 vehicle/camptothecin viability 0.0764; viability with camptothecin 73.8.
With knock-down of CXCL9 (GeneID 4283) #1 the results were log2 vehicle/camptothecin viability 0.92; viability with camptothecin 26.2.
Silencing of CXCL9 (GeneID 4283) #2 came out at: log2 vehicle/camptothecin viability -0.325; viability with camptothecin 38.3.
CXCL9 (GeneID 4283) #3 showed log2 vehicle/camptothecin viability -0.261; viability with camptothecin 102.
Against CXCL9 (GeneID 4283) #4, the values are log2 vehicle/camptothecin viability 0.00154; viability with camptothecin 36.6.
Against FAU (GeneID 2197) #1, the values are log2 vehicle/camptothecin viability -0.266; viability with camptothecin 32.3.
Depletion of FAU (GeneID 2197) #2 gave: log2 vehicle/camptothecin viability -0.601; viability with camptothecin 23.3.
For FAU (GeneID 2197) #3, the values are log2 vehicle/camptothecin viability -0.442; viability with camptothecin 43.1.
With knock-down of FAU (GeneID 2197) #4 the results were log2 vehicle/camptothecin viability -0.279; viability with camptothecin 83.9.
With knock-down of GPX5 (GeneID 2880) #1, the screen gave log2 vehicle/camptothecin viability -0.595; viability with camptothecin 91.6.
GPX5 (GeneID 2880) #2 gave log2 vehicle/camptothecin viability -0.337; viability with camptothecin 54.4.
For GPX5 (GeneID 2880) #3, the entry reads log2 vehicle/camptothecin viability -0.489; viability with camptothecin 56.
Against GPX5 (GeneID 2880) #4, the entry reads log2 vehicle/camptothecin viability -0.0415; viability with camptothecin 96.7.
Knock-down of NEUROD2 (GeneID 4761) #1 gave: log2 vehicle/camptothecin viability 0.115; viability with camptothecin 74.9.
NEUROD2 (GeneID 4761) #2 gave log2 vehicle/camptothecin viability 1.13; viability with camptothecin 27.7.
For NEUROD2 (GeneID 4761) #3, the entry reads log2 vehicle/camptothecin viability -0.0738; viability with camptothecin 130.
Knock-down of NEUROD2 (GeneID 4761) #4 came out at: log2 vehicle/camptothecin viability -0.0121; viability with camptothecin 76.2.
Against BTD (GeneID 686) #1, the values are log2 vehicle/camptothecin viability -0.234; viability with camptothecin 83.7.
Against BTD (GeneID 686) #2, the values are log2 vehicle/camptothecin viability -0.00921; viability with camptothecin 84.9.
For BTD (GeneID 686) #3, the entry reads log2 vehicle/camptothecin viability 0.153; viability with camptothecin 63.
For BTD (GeneID 686) #4, the values are log2 vehicle/camptothecin viability 0.138; viability with camptothecin 104.

3 entries from above, reformatted:
| gene symbol | reagent | log2 vehicle/camptothecin viability | viability with camptothecin |
| --- | --- | --- | --- |
| BTD (GeneID 686) | 1 | -0.234 | 83.7 |
| BTD (GeneID 686) | 2 | -0.00921 | 84.9 |
| BTD (GeneID 686) | 3 | 0.153 | 63 |
